Reference: paper PMC10991529
No constants are given. Whether binding was seen depends on the method and setting. In cells and extracts the contact can be indirect. Some results given as binding are weak or reduced against the parent protein; the word gives no strength.

Sequences of proteins named here, by UniProt entry; tags and fusion partners are left off.
UniProt O95714: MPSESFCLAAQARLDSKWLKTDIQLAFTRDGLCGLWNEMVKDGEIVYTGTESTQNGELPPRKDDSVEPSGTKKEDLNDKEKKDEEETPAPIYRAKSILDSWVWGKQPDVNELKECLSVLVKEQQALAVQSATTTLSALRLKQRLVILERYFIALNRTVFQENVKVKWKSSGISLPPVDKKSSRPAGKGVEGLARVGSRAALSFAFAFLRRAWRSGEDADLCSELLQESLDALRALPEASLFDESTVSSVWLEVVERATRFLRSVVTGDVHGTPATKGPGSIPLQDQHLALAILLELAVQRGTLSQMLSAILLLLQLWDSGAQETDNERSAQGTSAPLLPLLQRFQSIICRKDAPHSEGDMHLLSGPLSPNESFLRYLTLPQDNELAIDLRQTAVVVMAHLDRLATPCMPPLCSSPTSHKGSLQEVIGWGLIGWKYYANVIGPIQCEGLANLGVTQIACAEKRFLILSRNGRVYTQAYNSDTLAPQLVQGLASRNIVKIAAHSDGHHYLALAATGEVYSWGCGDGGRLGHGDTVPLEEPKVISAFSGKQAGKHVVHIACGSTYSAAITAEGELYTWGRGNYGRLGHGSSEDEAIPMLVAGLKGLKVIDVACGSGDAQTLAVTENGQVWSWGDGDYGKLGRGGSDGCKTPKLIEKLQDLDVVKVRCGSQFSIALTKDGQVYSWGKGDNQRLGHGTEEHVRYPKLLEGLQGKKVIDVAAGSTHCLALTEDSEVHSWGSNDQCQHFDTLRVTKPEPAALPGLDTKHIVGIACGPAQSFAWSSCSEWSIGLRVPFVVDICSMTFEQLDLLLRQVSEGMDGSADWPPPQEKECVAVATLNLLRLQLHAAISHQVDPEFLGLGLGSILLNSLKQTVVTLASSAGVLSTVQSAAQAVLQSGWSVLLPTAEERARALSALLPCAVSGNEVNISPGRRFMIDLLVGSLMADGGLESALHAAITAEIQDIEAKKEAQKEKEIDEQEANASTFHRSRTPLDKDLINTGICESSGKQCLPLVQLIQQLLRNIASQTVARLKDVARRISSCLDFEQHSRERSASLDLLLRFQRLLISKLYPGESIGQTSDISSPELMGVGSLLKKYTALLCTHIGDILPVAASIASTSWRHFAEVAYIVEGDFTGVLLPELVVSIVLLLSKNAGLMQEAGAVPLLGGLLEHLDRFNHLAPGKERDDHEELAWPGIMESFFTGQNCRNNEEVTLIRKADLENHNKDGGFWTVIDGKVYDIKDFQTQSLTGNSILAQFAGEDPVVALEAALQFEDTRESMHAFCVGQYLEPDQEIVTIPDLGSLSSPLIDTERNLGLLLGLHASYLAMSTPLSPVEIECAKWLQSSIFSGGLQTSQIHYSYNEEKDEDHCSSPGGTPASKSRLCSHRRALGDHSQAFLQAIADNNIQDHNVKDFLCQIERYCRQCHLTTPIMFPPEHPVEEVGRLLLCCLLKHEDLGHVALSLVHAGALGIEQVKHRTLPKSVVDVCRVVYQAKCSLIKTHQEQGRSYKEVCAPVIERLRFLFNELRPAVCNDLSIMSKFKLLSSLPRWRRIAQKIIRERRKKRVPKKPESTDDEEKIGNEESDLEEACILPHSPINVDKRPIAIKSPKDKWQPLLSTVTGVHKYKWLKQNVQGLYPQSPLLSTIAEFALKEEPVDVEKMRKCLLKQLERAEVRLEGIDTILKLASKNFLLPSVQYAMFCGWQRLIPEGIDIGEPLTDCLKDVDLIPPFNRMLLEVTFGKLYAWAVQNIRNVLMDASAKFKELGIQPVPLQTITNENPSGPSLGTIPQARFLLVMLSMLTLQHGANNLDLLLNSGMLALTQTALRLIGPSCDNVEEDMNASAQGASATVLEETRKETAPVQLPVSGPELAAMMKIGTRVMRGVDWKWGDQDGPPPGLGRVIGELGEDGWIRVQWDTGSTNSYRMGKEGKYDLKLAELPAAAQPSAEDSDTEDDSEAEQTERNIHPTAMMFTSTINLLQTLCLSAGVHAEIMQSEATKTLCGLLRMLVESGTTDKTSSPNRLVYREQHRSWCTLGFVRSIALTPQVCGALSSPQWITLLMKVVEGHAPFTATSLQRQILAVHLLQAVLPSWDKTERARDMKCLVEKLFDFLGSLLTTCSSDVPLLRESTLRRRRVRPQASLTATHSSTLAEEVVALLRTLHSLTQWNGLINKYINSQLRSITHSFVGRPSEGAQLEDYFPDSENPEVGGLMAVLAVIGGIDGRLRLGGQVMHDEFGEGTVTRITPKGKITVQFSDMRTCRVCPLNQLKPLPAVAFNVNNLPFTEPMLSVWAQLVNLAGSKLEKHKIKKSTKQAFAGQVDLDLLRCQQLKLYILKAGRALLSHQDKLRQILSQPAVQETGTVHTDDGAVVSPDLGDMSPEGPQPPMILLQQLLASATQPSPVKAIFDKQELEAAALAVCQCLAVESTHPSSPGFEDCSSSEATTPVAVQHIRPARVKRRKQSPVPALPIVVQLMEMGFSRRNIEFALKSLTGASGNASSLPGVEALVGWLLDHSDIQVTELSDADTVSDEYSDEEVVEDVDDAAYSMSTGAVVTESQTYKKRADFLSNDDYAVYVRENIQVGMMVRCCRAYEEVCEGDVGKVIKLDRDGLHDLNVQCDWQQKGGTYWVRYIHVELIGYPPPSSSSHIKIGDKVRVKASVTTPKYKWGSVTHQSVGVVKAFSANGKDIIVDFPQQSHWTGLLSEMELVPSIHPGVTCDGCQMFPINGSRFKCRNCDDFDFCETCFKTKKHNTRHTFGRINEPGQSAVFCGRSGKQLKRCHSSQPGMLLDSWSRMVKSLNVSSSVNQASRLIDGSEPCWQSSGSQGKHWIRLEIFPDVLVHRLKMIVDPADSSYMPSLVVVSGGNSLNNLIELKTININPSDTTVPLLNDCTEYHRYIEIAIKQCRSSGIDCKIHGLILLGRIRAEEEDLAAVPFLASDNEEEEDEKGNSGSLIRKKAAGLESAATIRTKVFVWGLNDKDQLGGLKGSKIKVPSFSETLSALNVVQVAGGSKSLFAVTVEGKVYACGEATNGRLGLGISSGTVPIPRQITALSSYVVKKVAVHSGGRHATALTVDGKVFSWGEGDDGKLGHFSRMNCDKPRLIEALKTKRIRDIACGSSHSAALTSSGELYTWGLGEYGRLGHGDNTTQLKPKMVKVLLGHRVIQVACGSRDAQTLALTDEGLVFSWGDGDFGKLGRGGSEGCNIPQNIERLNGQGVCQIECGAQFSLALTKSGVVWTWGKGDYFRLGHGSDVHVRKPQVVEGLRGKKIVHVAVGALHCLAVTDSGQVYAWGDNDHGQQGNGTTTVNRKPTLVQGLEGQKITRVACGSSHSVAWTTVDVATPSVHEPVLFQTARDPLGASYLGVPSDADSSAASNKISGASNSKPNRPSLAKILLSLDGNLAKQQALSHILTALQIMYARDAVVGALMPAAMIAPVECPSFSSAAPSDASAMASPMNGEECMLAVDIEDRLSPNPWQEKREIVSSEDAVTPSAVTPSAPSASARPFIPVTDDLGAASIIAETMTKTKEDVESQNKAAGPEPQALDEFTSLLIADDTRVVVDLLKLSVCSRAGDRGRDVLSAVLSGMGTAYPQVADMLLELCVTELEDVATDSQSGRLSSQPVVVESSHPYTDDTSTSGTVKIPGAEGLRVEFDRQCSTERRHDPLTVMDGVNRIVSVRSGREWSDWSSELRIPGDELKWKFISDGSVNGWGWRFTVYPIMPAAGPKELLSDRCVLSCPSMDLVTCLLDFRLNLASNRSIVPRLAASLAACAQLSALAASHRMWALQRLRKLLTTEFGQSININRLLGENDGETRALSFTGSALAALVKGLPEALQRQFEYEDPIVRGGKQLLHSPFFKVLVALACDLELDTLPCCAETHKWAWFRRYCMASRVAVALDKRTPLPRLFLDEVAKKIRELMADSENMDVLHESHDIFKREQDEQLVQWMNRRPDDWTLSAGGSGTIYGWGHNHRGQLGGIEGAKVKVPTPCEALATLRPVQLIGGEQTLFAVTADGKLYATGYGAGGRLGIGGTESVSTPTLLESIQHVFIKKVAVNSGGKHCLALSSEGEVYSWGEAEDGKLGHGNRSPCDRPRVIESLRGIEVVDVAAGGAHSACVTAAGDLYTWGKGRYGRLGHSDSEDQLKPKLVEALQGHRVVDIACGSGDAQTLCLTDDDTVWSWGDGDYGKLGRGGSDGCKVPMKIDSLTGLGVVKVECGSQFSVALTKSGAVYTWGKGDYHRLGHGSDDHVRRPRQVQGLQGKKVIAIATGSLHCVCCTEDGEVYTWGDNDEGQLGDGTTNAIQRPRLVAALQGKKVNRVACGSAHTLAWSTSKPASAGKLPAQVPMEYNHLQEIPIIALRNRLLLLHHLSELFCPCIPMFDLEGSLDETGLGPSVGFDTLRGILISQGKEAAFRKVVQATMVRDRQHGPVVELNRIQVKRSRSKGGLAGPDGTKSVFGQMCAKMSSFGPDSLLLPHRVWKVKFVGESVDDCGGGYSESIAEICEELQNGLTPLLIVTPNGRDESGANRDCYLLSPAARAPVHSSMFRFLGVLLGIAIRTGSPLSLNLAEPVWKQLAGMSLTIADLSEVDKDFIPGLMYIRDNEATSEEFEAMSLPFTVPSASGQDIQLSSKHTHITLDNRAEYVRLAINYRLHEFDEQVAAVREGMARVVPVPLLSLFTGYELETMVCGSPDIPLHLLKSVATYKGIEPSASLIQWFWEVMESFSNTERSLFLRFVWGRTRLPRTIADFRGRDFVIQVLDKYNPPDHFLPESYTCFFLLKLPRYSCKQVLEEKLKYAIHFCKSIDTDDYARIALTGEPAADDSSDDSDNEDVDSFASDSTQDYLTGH

Tests used:
[1] = molecular target: HERC2 protein fused with the Flag epitope (Flag-HERC2) (human) (UniProt O95714); experiment: pull-down; As a1 but in U2OS cells transfected with Flag-HERC2 or Flag-CTL; DYKDDDDK Fab-Trap agarose, immunoblot
[2] = molecular target: HERC2 protein fused with the Flag epitope (Flag-HERC2) (human) (UniProt O95714); experiment: pull-down; Lysates (NP40 buffer) of HEK293T cells transfected with Flag-HERC2 or Flag-CTL, incubated with DYKDDDDK Fab-Trap agarose 2 h at 4 °C, five washes, immunoblot of retained endogenous proteins; cells untreated, or 500 µM H2O2 for 3 or 6 h (less USP20 retained)

binding [1]: binds
binding [2]: binds
Substance: deubiquitylating enzyme USP20 (from UniProt Q9Y2K6 1-914)
